Record: PubChem BioAssay AID1259286 (Sanger Institute, 2017)

Assay: 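Kinome knock-downs lethal on their own or synergistic with anchor drugs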 (primary screen)
System: NCI-H630 human colorectal cancer cells
Knock-down reagent: siRNA pool against human genes
Treatment: anchor drugs BYL719 at 1 µM, cetuximab at 5 µg/ml or trametinib at 10 nM, or DMSO vehicle alone; exposure time not given
Read-out: 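Viability relative to non-targeting pool wells, averaged over replicates, with robust z-score for knock-down alone and a synergy score for each anchor drug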
Direction: viability z-score, knock-down alone: higher = more viable cells, weaker knock-down effect
Active means: 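a gene is called essential when its knock-down-alone viability robust z-score is below -3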
Meaning of the calls: active = essential when knocked down alone; inactive = not essential alone
The deposit covers 794 reagents; below is a part drawn at random. Over the whole deposit, 17 (2.1%) were called active. 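Calls use knock-down alone only; synergy above 0.15 marked separately; viability seems capped at control level; exposure time not given.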 A number with no mark means an inactive call. Further read-outs or replicates are left out here. Not given: the amount of reagent, the time to read-out.

How did the screen score IP6K2 (inositol hexakisphosphate kinase 2)?
viability z-score, knock-down alone: 0.464

How did the screen score CILK1 (ciliogenesis associated kinase 1)?
viability z-score, knock-down alone: 0.312

What did the screen give for PFKM (phosphofructokinase, muscle)?
viability z-score, knock-down alone: 0.464

How did the screen score RPS6KA3 (ribosomal protein S6 kinase A3)?
viability z-score, knock-down alone: 0.464

With STRADA (STE20 related adaptor alpha), how do the results read?
viability z-score, knock-down alone: -0.882

For CDK18 (cyclin dependent kinase 18), what was measured?
viability z-score, knock-down alone: -3.08 (active)

For PI4K2A (phosphatidylinositol 4-kinase type 2 alpha), what does the deposit list?
viability z-score, knock-down alone: 0.464

What did the screen give for SYNCRIP (synaptotagmin binding cytoplasmic RNA interacting protein)?
viability z-score, knock-down alone: -1.02

For TSSK4 (testis specific serine kinase 4), what was measured?
viability z-score, knock-down alone: 0.464

In a second layout: 3 of the entries above.
| gene | viability z-score, knock-down alone |
| --- | --- |
| RPS6KA3 (ribosomal protein S6 kinase A3) | 0.464 |
| STRADA (STE20 related adaptor alpha) | -0.882 |
| CDK18 (cyclin dependent kinase 18) | -3.08 (active) |

Continued.
Which result is listed for PIK3C2B?
viability z-score, knock-down alone: 0.464

For SHPK (sedoheptulokinase), what was measured?
viability z-score, knock-down alone: 0.464

How did the screen score XYLB (xylulokinase)?
viability z-score, knock-down alone: -1.35

For VRK3 (VRK serine/threonine kinase 3), what was measured?
viability z-score, knock-down alone: 0.464

With EPHA10 (EPH receptor A10), how do the results read?
viability z-score, knock-down alone: 0.464

Which result is listed for CHD4 (chromodomain helicase DNA binding protein 4)?
viability z-score, knock-down alone: -0.967

With TNK2 (tyrosine kinase non receptor 2), how do the results read?
viability z-score, knock-down alone: 0.464

How did the screen score STK3 (serine/threonine kinase 3)?
viability z-score, knock-down alone: 0.464

With FYN (FYN proto-oncogene, Src family tyrosine kinase), what does the deposit list?
viability z-score, knock-down alone: 0.464

For GTF2H1 (general transcription factor IIH subunit 1), what does the deposit list?
viability z-score, knock-down alone: -0.913
